From the supplement of paper PMC12889115
The list shows a part of the results. These are raw signals, not scaled to a control.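 Primary screen: polymyxin B was added at a level permeabilizing Salmonella outer membranes while sparing inner membranes. DMSO wells, both with and without polymyxin B, established maximum growth. Plate-to-plate variation meant each plate was ranked on its own, and the lowest-OD600 compounds were selected as hits.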

System: Salmonella enterica serovar Typhimurium SL1344
Test: bacterial growth OD600 after 18 h with compound and polymyxin B; higher = more bacterial growth (less inhibition)
Settings: 50 µM, Mueller-Hinton broth

COc1ccc(OC)c(CN2CCOc3ccc(C(O)CCc4ccccc4)cc3C2)c1 (stereo not given)
bacterial growth OD600 (polymyxin B 0.75 µg/mL): 0.002

CCc1cc(C(=O)NCc2cc(NS(=O)(=O)c3ccc(F)cc3)cc(C(=O)OC)c2)n(C)n1
bacterial growth OD600 (polymyxin B 0.75 µg/mL): 0.851

C=CCO[C@H]1[C@H](NC(=O)CSC)c2ccccc2C12CCN(Cc1cccc(OC)c1)CC2
bacterial growth OD600 (polymyxin B 0.75 µg/mL): 0.813

c1ccc2sc(N3CCCC(NC4CCSCC4)C3)nc2c1 (stereo not given)
bacterial growth OD600 (polymyxin B 1 µg/mL): 0.871

COc1cc(C(=O)NC2CCCCCCC2)ccc1OC1CCN(C(C)=O)CC1
bacterial growth OD600 (polymyxin B 1 µg/mL): 0.884

CCCCN(Cc1ccccc1)Cc1nc(-c2ccc(OC)cc2)no1
bacterial growth OD600 (polymyxin B 1 µg/mL): 0.85

COc1cc(CNC(C)c2cnn(-c3cccc(F)c3)c2C)cc(Cl)c1O (stereo not given)
bacterial growth OD600 (polymyxin B 0.75 µg/mL): 0.935

CCc1nc(C)c(CN2CCC(Oc3ccc(C(=O)N4CCCC4)cc3)CC2)[nH]1
bacterial growth OD600 (polymyxin B 0.75 µg/mL): 0.906

COCC1CCN(C(=O)c2cc(NC(=O)CC3CCCC3)cc3nc(C4CCCO4)n(C)c23)CC1 (stereo not given)
bacterial growth OD600 (polymyxin B 0.75 µg/mL): 0.835

CSc1ccc(C(=O)N2CCC(C(Cc3ccccc3)N(C)C(=O)c3ccccn3)CC2)cc1 (stereo not given)
bacterial growth OD600 (polymyxin B 0.75 µg/mL): 0.715

O=C(c1cc(Cn2ccc3ccccc32)[nH]n1)N1CCCCC1CCO (stereo not given)
bacterial growth OD600 (polymyxin B 1 µg/mL): 0.881

Cc1ncoc1C(=O)N1CCC(C2CCN(Cc3ccc(Cl)cc3)C2)CC1 (stereo not given)
bacterial growth OD600 (polymyxin B 0.75 µg/mL): 1

CNS(=O)(=O)c1sc2c(c1C(=O)OC)CCN(C(=O)c1cccc(C)c1C)C2
bacterial growth OD600 (polymyxin B 0.75 µg/mL): 0.817

CCC(O)C1CCN(C(=O)c2cc(COc3ccc(C(C)=O)cc3)on2)CC1 (stereo not given)
bacterial growth OD600 (polymyxin B 1 µg/mL): 0.923

COC(=O)c1cc(CNC(=O)c2ccccc2)cc(NS(=O)(=O)c2cccc(C(F)(F)F)c2)c1
bacterial growth OD600 (polymyxin B 0.75 µg/mL): 0.715

CC(CNC(=O)c1cc(CN2CCOCC2)on1)c1ccccc1 (stereo not given)
bacterial growth OD600 (polymyxin B 1 µg/mL): 0.903

Cc1c(-c2ccccc2F)[nH]c2ccc(CNC(=O)CCc3cnccn3)cc12
bacterial growth OD600 (polymyxin B 1 µg/mL): 0.648

O=C(NCc1ccc(OC(F)(F)F)cc1)c1cc(CN2CCOCC2)on1
bacterial growth OD600 (polymyxin B 1 µg/mL): 0.911

O=C(Nc1nc2c(s1)C(=O)CC(C(=O)N1CCCC(c3ccccc3)C1)C2)c1ccsc1 (stereo not given)
bacterial growth OD600 (polymyxin B 0.75 µg/mL): 0.002

CC(C)Cn1c(CN2CCCC2)cnc1S(=O)(=O)Cc1ccccc1
bacterial growth OD600 (polymyxin B 1 µg/mL): 1.22
